From paper PMC7447434, “Atomic structure of a mitochondrial complex I intermediate from vascular plants” (eLife, 2020)
These are yes or no findings as the source states them, for the method shown. Some results given as binding are weak or reduced against the parent protein; the word gives no strength.

T1: P2 (Vigna radiata)
T1 sequence: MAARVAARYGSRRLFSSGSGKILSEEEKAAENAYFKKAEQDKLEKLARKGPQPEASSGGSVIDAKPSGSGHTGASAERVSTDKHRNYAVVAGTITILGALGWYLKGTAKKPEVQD

T2: NDUX1 (Vigna radiata)
T2 sequence: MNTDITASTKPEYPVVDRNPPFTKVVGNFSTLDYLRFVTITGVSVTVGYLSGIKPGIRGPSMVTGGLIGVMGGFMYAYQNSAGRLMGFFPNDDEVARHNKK


Key:
P2 (Vigna radiata) = molecular target: T1, P2 (Vigna radiata); assay: cryo-EM structure; CI* (~800 kDa assembly intermediate) from V. radiata mitochondrial membranes, digitonin-extracted, amphipol A8-35-stabilised, sucrose gradient; 6 mg/ml in 20 mM HEPES, 150 mM NaCl, 1 mM EDTA, 0.1% digitonin, pH 7.8; nominal resolution 3.9 Å; interfaces of the γCA domain listed from the model with PDBePISA; both purified
NDUX1 (Vigna radiata) = molecular target: T2, NDUX1 (Vigna radiata); assay: as above

Row | binding (P2 (Vigna radiata)) | binding (NDUX1 (Vigna radiata)) | Binder
1 | binds | – | CA1 (natural protein, Vigna radiata, UniProt A0A1S3VT00 1-270, looked up, CA1, gamma-carbonic-anhydrase domain subunit of Vigna radiata mitochondrial complex I; 270 residues; residues 3-222 modelled, 223-233 as poly-Ala; also called carbonic-anhydrase-1 subunit; Gamma-CA 1 (A. thaliana name)) MGTLGRAFYAVGFWIRETGQAIDRLGSRLQGNYLFQEQLSRHRPLMNLFDKYPSVHKDAFVAPSASLLGDVHVGPASSIWYGCVLRGDVNGIVIGSGTNIQDNSLVHVAKSNLTGKVLPTIIGDNVTVGHSAVLQGCTVEDEAFIGMGATLLDGVYVEKHAMVAAGALVRQNTRIPYGEVWGGNPAKFLRKLTEDEMAFFSQSALNYSNLAQAHAAENAKELEETEFVKVLHKKFAPRGEEYDSILDGGQETPAKLNLQDNVLLDKAPKA
2 | – | binds | P2 (protein, UniProt A0A1S3TGE7 1-115) MAARVAARYGSRRLFSSGSGKILSEEEKAAENAYFKKAEQDKLEKLARKGPQPEASSGGSVIDAKPSGSGHTGASAERVSTDKHRNYAVVAGTITILGALGWYLKGTAKKPEVQD
